Results from patent US20230357519A1, “REMOVAL OF ODORANTS FROM POST-CONSUMER POLYOLEFIN WASTE” (Borealis AG, priority 2020, published 2023).

Experiment: Washing efficiency: reduction of contaminant content in recycled polyolefin after the wash, by HS-GC/MS
[1] = wash: Water/heptane 10:90 emulsion, ultrasound, 1 hour (Inventive Example 3)
[2] = wash: Water/heptane 50:50 emulsion, ultrasound, 1 hour (Inventive Example 2)
[3] = wash: Water/heptane 90:10 (UT), Ultraturrax machine at 65° C. (Inventive Example 4)
[4] = wash: Water/heptane 90:10 (UT/ice), Ultraturrax machine cooled with ice, approx. 20° C. (Inventive Example 5)
[5] = wash: Water/heptane 90:10 emulsion, ultrasound, 1 hour (Inventive Example 1)
[6] = wash: heptane 100 ml, ultrasound, 1 hour (Comparative Example 2)
[7] = wash: water 100 ml, ultrasound, 1 hour (Comparative Example 1)

SMILES | Washing efficiency (reduction of contaminant, based on content before the treatment) [1] [%] | Washing efficiency (reduction of contaminant, based on content before the treatment) [2] [%] | Washing efficiency (reduction of contaminant, based on content before the treatment) [3] [%] | Washing efficiency (reduction of contaminant, based on content before the treatment) [4] [%] | Washing efficiency (reduction of contaminant, based on content before the treatment) [5] [%] | Washing efficiency (reduction of contaminant, based on content before the treatment) [6] [%] | Washing efficiency (reduction of contaminant, based on content before the treatment) [7] [%]
CCCCC(CCCC)CC(C)C [5-(2-Methylpropyl)-nonane] | 98 | 98 | 96 | 100 | 95 | 89 | 8
CCCCCCCC(C)=O [2-Nonanone] | 100 | 100 | 100 | 100 | 100 | 100 | 62
CC(O)C(C)O (centres unmarked) [2,3-Butanediol] | 100 | 100 | 100 | 100 | 100 | 98 | 100
C=Cc1ccccc1 [Styrene] | 98 | 99 | 98 | 98 | 98 | 96 | 48
CCCCC(C)CCCC(C)C (centres unmarked) [2,6-Dimethyl decane] | 99 | 100 | 98 | 98 | 96 | 100 | 30
C=C(C)[C@H]1CC=C(C)CC1 [D-Limonene] | 100 | 99 | 99 | 97 | 100 | 100 | 42
CCCCC(CC)CO (centres unmarked) [2-Ethyl-1-hexanol] | 99 | 98 | 96 | 94 | 95 | 92 | 49
CCCC(C)=O [2-Pentanone] | 99 | 99 | 99 | 98 | 96 | 92 | 78
